Results taken from PMC11130292.
Results are given in words; binding and its absence hold for the method and conditions named. In cells and extracts the contact can be indirect. Some results given as binding are weak or reduced against the parent protein; the word gives no strength.

Amino acid sequences for entries named in this document (tags omitted).
UniProt Q6ZNE5: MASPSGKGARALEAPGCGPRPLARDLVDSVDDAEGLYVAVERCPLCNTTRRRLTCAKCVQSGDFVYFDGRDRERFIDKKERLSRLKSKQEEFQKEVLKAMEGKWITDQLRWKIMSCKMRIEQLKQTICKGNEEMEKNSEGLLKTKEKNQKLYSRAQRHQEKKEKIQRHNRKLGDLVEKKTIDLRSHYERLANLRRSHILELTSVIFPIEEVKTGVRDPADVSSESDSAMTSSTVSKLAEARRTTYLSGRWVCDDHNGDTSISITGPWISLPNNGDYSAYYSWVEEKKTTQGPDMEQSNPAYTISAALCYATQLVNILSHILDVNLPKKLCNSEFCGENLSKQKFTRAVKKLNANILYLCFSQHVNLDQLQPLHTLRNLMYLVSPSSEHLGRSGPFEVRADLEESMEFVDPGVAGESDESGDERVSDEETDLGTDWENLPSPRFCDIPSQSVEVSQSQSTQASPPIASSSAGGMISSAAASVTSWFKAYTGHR
UniProt P19474: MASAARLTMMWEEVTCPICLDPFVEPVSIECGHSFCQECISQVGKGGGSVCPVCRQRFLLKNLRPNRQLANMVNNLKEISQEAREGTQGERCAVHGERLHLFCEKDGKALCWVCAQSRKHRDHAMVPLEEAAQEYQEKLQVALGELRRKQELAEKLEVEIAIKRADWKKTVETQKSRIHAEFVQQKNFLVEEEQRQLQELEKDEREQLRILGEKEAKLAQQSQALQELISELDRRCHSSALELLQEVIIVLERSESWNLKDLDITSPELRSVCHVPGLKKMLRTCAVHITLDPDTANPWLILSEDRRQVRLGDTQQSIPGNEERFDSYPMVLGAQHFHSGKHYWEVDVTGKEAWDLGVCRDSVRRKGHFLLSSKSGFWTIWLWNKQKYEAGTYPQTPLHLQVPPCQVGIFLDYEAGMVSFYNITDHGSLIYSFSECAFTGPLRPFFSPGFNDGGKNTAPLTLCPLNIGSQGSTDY

Target: T1, interferon-related developmental regulator 1 (IFRD1), ectopically expressed in HepG2 cells (UniProt O00458)
T1 sequence: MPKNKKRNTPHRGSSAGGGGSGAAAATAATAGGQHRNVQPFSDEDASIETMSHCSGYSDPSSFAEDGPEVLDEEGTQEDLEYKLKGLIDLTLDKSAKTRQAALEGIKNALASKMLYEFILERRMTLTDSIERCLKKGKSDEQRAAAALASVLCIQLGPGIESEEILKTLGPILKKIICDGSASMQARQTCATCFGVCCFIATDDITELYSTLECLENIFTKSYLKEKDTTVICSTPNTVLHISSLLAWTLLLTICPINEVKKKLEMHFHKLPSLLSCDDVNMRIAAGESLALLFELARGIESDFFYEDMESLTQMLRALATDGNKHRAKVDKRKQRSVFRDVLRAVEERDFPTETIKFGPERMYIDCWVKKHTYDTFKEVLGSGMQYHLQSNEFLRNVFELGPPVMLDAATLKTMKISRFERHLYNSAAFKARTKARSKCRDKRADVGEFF
Experiment: co-IP; proteins ectopically expressed in HepG2 cells; lysis in 50 mM Tris-HCl pH 7.4, 150 mM NaCl, 1 mM EDTA, 5% glycerol, 0.4% Triton X-100, 0.4% NP-40; anti-FLAG M2 beads or antibodies on protein A + G agarose, 4 °C, 4 h; western blot

| binding | Substance |
| --- | --- |
| binds | ATG14, ectopically expressed in HepG2 cells (from UniProt Q6ZNE5 1-492) |
| binds | TRIM21, ectopically expressed in HepG2 cells (from UniProt P19474 1-475) |
